Experimental data from US9517222B2, “Method for the treatment of senile dementia of the Alzheimer's type” (Phenomenome Discoveries Inc., priority 2007, dated 2016).
A unit is not stated for every read-out.

How the values were obtained:
[1] = Serum ethanolamine phospholipid levels in human cohorts (dementia severity, post-mortem pathology, age) by flow-injection MS/MS
[2] = Serum ethanolamine phospholipid ratios to PtdEt 16:0/18:0 (M01) in human cohorts
[3] = serum, females, post mortem SDAT
[4] = serum, females, post mortem control

For `CCCCC/C=C\C/C=C\C/C=C\C/C=C\CCCC(=O)OC(COCCCCCCCCCCCCCCCC)COP(=O)(O)OCCN` (centres unmarked) [Metabolite M07, Plasmanyl 16:0/20:4], the “Ratio of serum levels” value ([1]; AD, All to CN, Male) was 0.709, the “Ratio of serum levels” value ([1]; ADAS 5-19 to CN, Male) was 0.753 and the “Ratio of serum levels” value ([1]; ADAS 20-39 to 5-19, Male) was 0.935. The “Ratio of serum levels” value ([1]; ADAS 20-39 to CN, Male) was 0.704, the “Ratio of serum levels” value ([1]; ADAS 40-70 to 5-19, Male) was 0.783 and the “Ratio of serum levels” value ([1]; ADAS 40-70 to 20-39, Male) was 0.837. The “Ratio of serum levels” value ([1]; ADAS 40-70 to CN, Male) was 0.589, the “Serum level, Mean” value ([1]; Cognitive Normal, Female) was 0.056 and the “Average serum level, Mean” value ([1]; Cognitive Normal, Male) was 0.062. For the same compound, the “Serum level, Mean” value ([1]; Post Mortem Ctl, Male) was 0.012, the “Serum level, Mean” value ([1]; Post Mortem SDAT Male) was 0.009 and the “Ratio of serum levels” value ([1]; Post mortem SDAT vs Control, Male) was 0.451. The “Serum level, Mean” value ([1]; SDAT, ADAS 5-19, Female) was 0.044, the “Average serum level, Mean” value ([1]; SDAT, ADAS 5-19, Male) was 0.047 and the “Serum level, Mean” value ([1]; SDAT, ADAS 20-39, Female) was 0.042. The “Average serum level, Mean” value ([1]; SDAT, ADAS 20-39, Male) was 0.044, the “Serum level, Mean” value ([1]; SDAT, ADAS 40-70, Female) was 0.036 and the “Average serum level, Mean” value ([1]; SDAT, ADAS 40-70, Male) was 0.036. For the same compound, the “Serum level, Mean” value ([1]; SDAT_all, Female) was 0.041, the “Average serum level, Mean” value ([1]; SDAT_all, Male) was 0.044 and the “Ratio, ADAS 5-19 to CN, Female” value ([1]; serum level ratio, females, ADAS 5-19 vs CN) was 0.798. For the same compound, the “Ratio, ADAS 20-39 to 5-19, Female” value ([1]; serum level ratio, females, ADAS 20-39 vs ADAS 5-19) was 0.944, the “Ratio, ADAS 20-39 to CN, Female” value ([1]; serum level ratio, females, ADAS 20-39 vs CN) was 0.753 and the “Ratio, ADAS 40-70 to 5-19, Female” value ([1]; serum level ratio, females, ADAS 40-70 vs ADAS 5-19) was 0.822. The “Ratio, ADAS 40-70 to 20-39, Female” value ([1]; serum level ratio, females, ADAS 40-70 vs ADAS 20-39) was 0.871, the “Ratio, ADAS 40-70 to CN, Female” value ([1]; serum level ratio, females, ADAS 40-70 vs CN) was 0.656 and the “Ratio, 50-59 vs. 40-49, Female” value ([1]; serum level ratio, females, age 50-59 vs 40-49) was 0.798. For the same compound, the “Ratio, 60-69 vs. 40-49, Female” value ([1]; serum level ratio, females, age 60-69 vs 40-49) was 0.718, the “Ratio, 70+ vs. 40-49, Female” value ([1]; serum level ratio, females, age 70+ vs 40-49) was 0.726 and the “Ratio, AD, All to CN, Female” value ([1]; serum level ratio, females, all AD vs cognitively normal) was 0.732. The “Ratio, Autopsy AD vs. Control, Female” value ([1]; serum level ratio, females, autopsy AD vs control) was 0.530, the “Ratio, 50-59 vs. 40-49, Male” value ([1]; serum level ratio, males, age 50-59 vs 40-49) was 1.198 and the “Ratio, 60-69 vs. 40-49, Male” value ([1]; serum level ratio, males, age 60-69 vs 40-49) was 1.164. For the same compound, the “Ratio, 70+ vs. 40-49, Male” value ([1]; serum level ratio, males, age 70+ vs 40-49) was 1.133, the “Mean serum level, Age Ctl, 30-39, Female” value ([1]; serum, females, age 30-39) was 0.061 and the “Mean serum level, Age Ctl, 40-49, Female” value ([1]; serum, females, age 40-49) was 0.071. For the same compound, the “Mean serum level, Age Ctl, 50-59, Female” value ([1]; serum, females, age 50-59) was 0.057, the “Mean serum level, Age Ctl, 60-69, Female” value ([1]; serum, females, age 60-69) was 0.051 and the “Mean serum level, Age Ctl, 70+, Female” value ([1]; serum, females, age 70+) was 0.052. The “Mean serum level, Post Mortem SDAT, Female” value [1, 3] was 0.005, the “Mean serum level, Post Mortem Ctl, Female” value [1, 4] was 0.016 and the “Mean serum level, Age Ctl, 30-39, Male” value ([1]; serum, males, age 30-39) was 0.078. The “Mean serum level, Age Ctl, 40-49, Male” value ([1]; serum, males, age 40-49) was 0.053, the “Mean serum level, Age Ctl, 50-59, Male” value ([1]; serum, males, age 50-59) was 0.063 and the “Mean serum level, Age Ctl, 60-69, Male” value ([1]; serum, males, age 60-69) was 0.061. The “Mean serum level, Age Ctl, 70+, Male” value ([1]; serum, males, age 70+) was 0.060, the “Ratio of ethanolamine phospholipid ratios to M01 between cohorts” value (“Ratio … to M01 between cohorts” below) ([2]; AD, All to CN, Male) was 0.673 and the “Ratio … to M01 between cohorts” value ([2]; ADAS 5-19 to CN, Male) was 0.715. The “Ratio … to M01 between cohorts” value ([2]; ADAS 20-39 to CN, Male) was 0.676, the “Ratio … to M01 between cohorts” value ([2]; ADAS 40-70 to CN, Male) was 0.580 and the “Average serum ethanolamine phospholipid ratio to M01, Mean” value ([2]; Cognitive Normal, Male, serum) was 0.554. The “Average serum ethanolamine phospholipid ratio to M01, Mean” value ([2]; SDAT, ADAS 5-19, Male, serum) was 0.396, the “Average serum ethanolamine phospholipid ratio to M01, Mean” value ([2]; SDAT, ADAS 20-39, Male, serum) was 0.375 and the “Average serum ethanolamine phospholipid ratio to M01, Mean” value ([2]; SDAT, ADAS 40-70, Male, serum) was 0.321. The “Average serum ethanolamine phospholipid ratio to M01, Mean” value ([2]; SDAT_all, Male, serum) was 0.373, the “Ethanolamine Phospholipid Ratio to M01, Mean, Age Ctl, 30-39, Female” value ([2]; human serum, females aged 30-39) was 0.618 and the “Ethanolamine Phospholipid Ratio to M01, Mean, Age Ctl, 40-49, Female” value ([2]; human serum, females aged 40-49) was 0.667. The “Ethanolamine Phospholipid Ratio to M01, Mean, Age Ctl, 50-59, Female” value ([2]; human serum, females aged 50-59) was 0.582, the “Ratio of Ethanolamine Phospholipid Ratio to M01, 50-59 vs. 40-49, Female” value ([2]; human serum, females aged 50-59 vs. females aged 40-49) was 0.873 and the “Ethanolamine Phospholipid Ratio to M01, Mean, Age Ctl, 60-69, Female” value ([2]; human serum, females aged 60-69) was 0.435. For the same compound, the “Ratio of Ethanolamine Phospholipid Ratio to M01, 60-69 vs. 40-49, Female” value ([2]; human serum, females aged 60-69 vs. females aged 40-49) was 0.652, the “Ethanolamine Phospholipid Ratio to M01, Mean, Age Ctl, 70+_Female” value ([2]; human serum, females aged 70+) was 0.430 and the “Ratio of Ethanolamine Phospholipid Ratio to M01, 70+ vs. 40-49, Female” value ([2]; human serum, females aged 70+ vs. females aged 40-49) was 0.644. The “Ratio of Ethanolamine Phospholipid Ratio to M01, 50-59 vs. 40-49, Male” value ([2]; human serum, males aged 50-59 vs. males aged 40-49) was 1.177, the “Ratio of Ethanolamine Phospholipid Ratio to M01, 60-69 vs. 40-49, Male” value ([2]; human serum, males aged 60-69 vs. males aged 40-49) was 0.970 and the “Ratio of Ethanolamine Phospholipid Ratio to M01, 70+ vs. 40-49, Male” value ([2]; human serum, males aged 70+ vs. males aged 40-49) was 0.927. For the same compound, the “Ratio of ethanolamine phospholipid ratio to M01, ADAS 5-19 to CN, Female” value ([2]; serum, females, ADAS 5-19 vs cognitive normal) was 0.890, the “Ratio of ethanolamine phospholipid ratio to M01, ADAS 20-39 to 5-19, Female” value ([2]; serum, females, ADAS 20-39 vs ADAS 5-19) was 0.895 and the “Ratio of ethanolamine phospholipid ratio to M01, ADAS 20-39 to CN, Female” value ([2]; serum, females, ADAS 20-39 vs cognitive normal) was 0.796. For the same compound, the “Ratio of ethanolamine phospholipid ratio to M01, ADAS 40-70 to 5-19, Female” value ([2]; serum, females, ADAS 40-70 vs ADAS 5-19) was 0.745, the “Ratio of ethanolamine phospholipid ratio to M01, ADAS 40-70 to 20-39, Female” value ([2]; serum, females, ADAS 40-70 vs ADAS 20-39) was 0.833 and the “Ratio of ethanolamine phospholipid ratio to M01, ADAS 40-70 to CN, Female” value ([2]; serum, females, ADAS 40-70 vs cognitive normal) was 0.663. For the same compound, the “Ethanolamine phospholipid ratio to M01, Mean, SDAT, ADAS 5-19, Female” value ([2]; serum, females, SDAT ADAS 5-19) was 0.422, the “Ethanolamine phospholipid ratio to M01, Mean, SDAT, ADAS 20-39, Female” value ([2]; serum, females, SDAT ADAS 20-39) was 0.377 and the “Ethanolamine phospholipid ratio to M01, Mean, SDAT, ADAS 40-70, Female” value ([2]; serum, females, SDAT ADAS 40-70) was 0.314. For the same compound, the “Ratio of ethanolamine phospholipid ratio to M01, AD, All to CN, Female” value ([2]; serum, females, all AD vs cognitive normal) was 0.776, the “Ethanolamine phospholipid ratio to M01, Mean, SDAT_all Female” value ([2]; serum, females, all SDAT) was 0.368 and the “Ratio of ethanolamine phospholipid ratio to M01, Autopsy AD vs. Control, Female” value ([2]; serum, females, autopsy AD vs post mortem control) was 0.752. The “Ethanolamine phospholipid ratio to M01, Mean, Cognitive Normal, Female” value ([2]; serum, females, cognitive normal) was 0.474, the “Ethanolamine phospholipid ratio to M01, Mean, Post Mortem SDAT Female” value [2, 3] was 0.077 and the “Ethanolamine phospholipid ratio to M01, Mean, Post Mortem Ctl, Female” value [2, 4] was 0.102. The “Ratio of ethanolamine phospholipid ratio to M01, ADAS 20-39 to 5-19, Male” value ([2]; serum, males, SDAT ADAS 20-39 vs ADAS 5-19) was 0.946, the “Ratio of ethanolamine phospholipid ratio to M01, ADAS 40-70 to 5-19, Male” value ([2]; serum, males, SDAT ADAS 40-70 vs ADAS 5-19) was 0.811 and the “Ratio of ethanolamine phospholipid ratio to M01, ADAS 40-70 to 20-39, Male” value ([2]; serum, males, SDAT ADAS 40-70 vs ADAS 20-39) was 0.857. The “Ethanolamine phospholipid ratio to M01, Mean, Age Ctl, 30-39, Male” value ([2]; serum, males, age control 30-39) was 0.683, the “Ethanolamine phospholipid ratio to M01, Mean, Age Ctl, 40-49, Male” value ([2]; serum, males, age control 40-49) was 0.493 and the “Ethanolamine phospholipid ratio to M01, Mean, Age Ctl, 50-59, Male” value ([2]; serum, males, age control 50-59) was 0.581. The “Ethanolamine phospholipid ratio to M01, Mean, Age Ctl, 60-69, Male” value ([2]; serum, males, age control 60-69) was 0.479, the “Ethanolamine phospholipid ratio to M01, Mean, Age Ctl, 70+_Male” value ([2]; serum, males, age control 70+) was 0.457 and the “Ethanolamine phospholipid ratio to M01, Mean, Post Mortem SDAT Male” value ([2]; serum, males, post mortem SDAT) was 0.059. The “Ratio of ethanolamine phospholipid ratio to M01, SDAT vs Control (post mortem, males)” value ([2]; serum, males, post mortem SDAT vs post mortem control) was 0.549 and the “Ethanolamine phospholipid ratio to M01, Mean, Post Mortem Ctl, Male” value ([2]; serum, males, post mortem control) was 0.107.
